The source of these data is PubChem BioAssay AID1307 (SRMLSC, 2008).

The structures appear in SMILES notation. Out of some 1,200 compounds screened, fewer than 10 were called active.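 Rule for the calls: active = inhibition reaching a set limit at one or more tested concentrations; inactive = inhibition under that limit at every dose.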 Some of the results follow. Potency and affinity values are given separately.

The nature of this assay: yeast RAM network inhibitors, dose response, S. cerevisiae (AID 1307).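 Note: 0% = DMSO vehicle wells and 100% = 10 µM 1-NA-PP1 control; higher inhibition means more yeast growth since RAM block rescues cells from 5-FOA.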 The note with it: S. cerevisiae RAM network URA3 reporter, 5-FOA growth OD615, active compounds read high, yeast express analog-sensitive mutant Cbk1 kinase; at 100 µM unless noted.
`CCOC(=O)c1c(C)nc2c(c1C)c(=O)oc1ccccc12`: the max inhibition is inactive: 2.9% [at 12.5 µM]. Turning to `O=c1c(/C=N/O)coc2ccc3ccccc3c12`, the max inhibition was inactive: 1.72% [at 12.5 µM]. The figure for `Cn1cnnc1SC1c2cccc3cccc(c23)C1NS(=O)(=O)c1ccc(Cl)cc1` (stereo not given) is inactive: 6.71%; for `CCCN(N=Nc1cccc([N+](=O)[O-])c1)c1cccc([N+](=O)[O-])c1` it is inactive: 1.92% [at 3.125 µM].

Consider `O=C(/C=C/c1cccc(Br)c1)N1CCN(c2cccc(C(F)(F)F)c2)CC1`, for which the max inhibition was inactive: 3.48% [at 50 µM]. As to `c1ccc(-c2csc(N3CCc4ccccc4C3)n2)cc1`, the max inhibition is inactive: 2.64% [at 0.196 µM].

With `CCOCCOC(=O)C(C)Oc1ccc(Oc2nc(Cl)ccc2Cl)cc1` (stereo not given), the max inhibition is inactive: 2.21% [at 25 µM]. The figure for `O=C(NCc1ccc2c(c1)OCO2)c1cc(-c2ccccn2)nc2ccccc12` is inactive: 4.19% [at 3.125 µM]; for `COc1cccc(CNC(=O)CN2C(=O)CC(c3ccccc3)=Nc3ccccc32)c1` it is inactive: 1.81% [at 0.782 µM]; for `Cc1sc2nc(SCc3ccccc3)n(Cc3ccco3)c(=O)c2c1C` it is inactive: 2.81%. With `COc1ccc(/C=C/C(=O)c2c(O)c(OC)c3occc3c2OC)cc1`, the max inhibition is inactive: 11.9% [at 50 µM]. Turning to `CS(=O)(=O)N(Cc1ccc(C(=O)NCCSCc2ccco2)cc1)c1ccccc1`, the max inhibition is inactive: 3.96% [at 50 µM].

As to `COc1ccc2c(c1)C(C)CC(C)(C)N2C(=O)CSc1nc2ccccc2s1` (stereo not given), the max inhibition was inactive: 4%. `C=CCSC1=N/C(=C/c2ccsc2)C(=O)N1c1ccccc1`: the max inhibition was inactive: 2.72%.

`C=CCn1c(=O)c(C(=O)Nc2ccccc2C(=O)OCC)c(O)c2ccccc21`: the max inhibition was inactive: 4.45% [at 50 µM].

Turning to `Cc1ccc(S(=O)(=O)N2CCC(=O)N(C(COCc3ccc(Cl)c(Cl)c3)Cc3ccccc3)CC2)cc1` (stereo not given), the max inhibition was inactive: 5.53%. As for `O=C(COC(=O)/C=C/c1nc2ccccc2s1)Nc1ccccc1Oc1ccccc1`, the max inhibition is inactive: 4.29% [at 25 µM]. Regarding `CCCCN(CCCC)C1=Nc2ccccc2N/C1=C(/C#N)C(=O)OCC`, the max inhibition is inactive: 3.63%. On to `O=S(=O)(NCCc1csc(-c2ccc(C(F)(F)F)cc2)n1)c1ccc2c(c1)OCCO2`, for which the max inhibition was inactive: 3.1% [at 0.196 µM].

For `COc1ccc(CCNC(=O)/C(C#N)=C/c2cccc(OCc3ccccc3)c2)cc1OC`, the max inhibition is inactive: 2.94%. For `O=C(CN(C(=O)CSc1nnc(COc2ccccc2)o1)c1ccc(F)cc1)NC1CCCC1`, the max inhibition is inactive: 2.82%. Turning to `CCOc1ccc(N(C)S(=O)(=O)c2ccc3[nH]cc(C(=O)NCCOC)c(=O)c3c2)cc1`, the max inhibition is inactive: 12.1%. For the compound `Clc1ccc(-c2csc(N3CCC(c4ccccc4)C3)n2)cc1` (stereo not given), the max inhibition was inactive: 2.95%.

As to `CCOC(=O)c1c(NC(=O)CSc2nnnn2-c2ccc(OC)cc2)sc(C)c1C`, the max inhibition was inactive: 2.24%. For `N#Cc1c(SCc2ccccc2)nc(N2CCOCC2)c2c1CCCC2`, the max inhibition was inactive: 4.87% [at 50 µM]. For the compound `CCOc1ccccc1NC(=O)C(OC(=O)c1ccc(CC)cc1)c1ccccc1` (stereo not given), the max inhibition was inactive: 4.01% [at 50 µM]. `O=C(COC(=O)c1ccccc1-c1nc2ccccc2s1)Nc1ccccc1C(F)(F)F`: the max inhibition was inactive: 2.36%.

With `CCN(CC)S(=O)(=O)c1ccc(OC)c(NC(=O)CSc2cc(C)ccc2C)c1`, the max inhibition is inactive: 4.46% [at 6.25 µM]. For `COc1ccccc1-c1noc(CCC(=O)Nc2cccc(C(F)(F)F)c2)n1`, the max inhibition is inactive: 2.9% [at 0.782 µM]. For the compound `Cn1c(SCC(=O)N2CCc3ccccc32)nnc1-c1ccc(S(=O)(=O)N2CCCC2)cc1`, the max inhibition is inactive: 6.24%. For the compound `Cc1cnn(-c2nc(-c3ccccc3)cc(-c3ccccc3)n2)c1`, the max inhibition is inactive: 2.2% [at 0.782 µM]. Take `Cc1ccc(OCC(O)Cn2c3ccccc3c3ccccc32)cc1` (stereo not given): the max inhibition is inactive: 4.27%. Then `O=C(Nc1ccccc1Cl)c1cccc(COc2cc(Cl)ccc2Cl)c1`, with inactive: 2.59%; and `O=C(COC(=O)C1(c2ccccc2F)CCCC1)Nc1ncc(C(F)(F)F)cc1Cl`, with inactive: 2.79% [at 0.196 µM]; and `CCOC(=O)C1=C(O)/C(=C/c2cc(OC)c(O)c(OC)c2)SC1=Nc1ccc(OC)cc1`, with inactive: 4.16%.

For `CCOC(=O)c1c(-c2cccc([N+](=O)[O-])c2)csc1NC(=O)CCCOc1ccccc1`, the max inhibition was inactive: 4.41% [at 25 µM]. On to `COc1cccc(CN(Cc2ccccc2F)S(=O)(=O)c2ccc(S(=O)(=O)NCc3ccccc3)cc2)c1`, for which the max inhibition is inactive: 4.33%. Regarding `COc1ccccc1OCC(=O)Nc1ccc(CSc2ccccc2)cc1C`, the max inhibition was inactive: 1.56% [at 25 µM]. In the case of `O=C(Nc1ccc(Br)cc1)c1cccc(S(=O)(=O)Nc2cnc3ccccc3c2)c1`, the max inhibition was inactive: 3.63%. Then `COc1ccccc1NS(=O)(=O)c1ccc2oc(SCc3ccc(F)cc3)nc2c1`, with inactive: 1.06%. `O=C(O)CC1S/C(=N/N=C/c2ccc(Br)cc2)N(c2ccccc2)C1=O` (stereo not given): the max inhibition is inactive: 5.74%. In the case of `O=C(CSc1nc2ccccc2c(=O)n1CCC(=O)N1CCCCC1)NCc1ccccc1`, the max inhibition was inactive: 2.79% [at 3.125 µM]. With `COc1ccc(OC2C(=O)N(Cc3ccc4c(c3)OCO4)C2c2cccs2)cc1` (stereo not given), the max inhibition is inactive: 3.16%.

For the compound `CC1=C(C(=O)OCc2ccccc2)C(c2ccc([N+](=O)[O-])cc2)NC(=O)N1CCCCCC(=O)O` (stereo not given), the max inhibition is inactive: 2.11% [at 0.782 µM]. In the case of `Cc1ccc(OCCn2cc(/C=C(\C#N)C(=O)NCC3CCCO3)c3ccccc32)cc1` (stereo not given), the max inhibition is inactive: 4.27%. Regarding `C=CCN(CC=C)S(=O)(=O)c1ccc(NC(=O)COc2ccccc2OC)cc1`, the max inhibition is inactive: 3.12% [at 50 µM]. Consider `CCCN(CC1CC1)C(=O)CSc1ncnc2sc(C)c(C)c12`, for which the max inhibition is inactive: 3.11% [at 3.125 µM]. With `COC(=O)c1ccc(CSc2nc(-c3ccco3)cc(C(F)(F)F)n2)o1`, the max inhibition was inactive: 5.27%. The figure for `COc1ccc(Br)cc1C(=O)Nc1ccccc1-c1ccccc1` is inactive: 6.2% [at 50 µM]; for `CCOC(=O)C1=NN(c2ccccc2C)C2=NC(C)=C(C(=O)OC)C(c3cccc(OC)c3)N12` (stereo not given) it is inactive: 3.76% [at 3.125 µM].
